Experimental data taken from the supplement of paper PMC3334620.
Over roughly 33,000 sequences, “E-score (-0.5 to 0.5)” has its median near -0.016; the highest 2% begin near 0.3. This is one part of the list.

The sequences below were run against T1, Yer184c (UniProt P39961) (assay: PBM E-score (8-mer binding enrichment) (E-score (-0.5 to 0.5)); higher = stronger / more preferred TF binding). Conditions: protein concentration: 100 nM; construct: GST-full length.
T1 sequence: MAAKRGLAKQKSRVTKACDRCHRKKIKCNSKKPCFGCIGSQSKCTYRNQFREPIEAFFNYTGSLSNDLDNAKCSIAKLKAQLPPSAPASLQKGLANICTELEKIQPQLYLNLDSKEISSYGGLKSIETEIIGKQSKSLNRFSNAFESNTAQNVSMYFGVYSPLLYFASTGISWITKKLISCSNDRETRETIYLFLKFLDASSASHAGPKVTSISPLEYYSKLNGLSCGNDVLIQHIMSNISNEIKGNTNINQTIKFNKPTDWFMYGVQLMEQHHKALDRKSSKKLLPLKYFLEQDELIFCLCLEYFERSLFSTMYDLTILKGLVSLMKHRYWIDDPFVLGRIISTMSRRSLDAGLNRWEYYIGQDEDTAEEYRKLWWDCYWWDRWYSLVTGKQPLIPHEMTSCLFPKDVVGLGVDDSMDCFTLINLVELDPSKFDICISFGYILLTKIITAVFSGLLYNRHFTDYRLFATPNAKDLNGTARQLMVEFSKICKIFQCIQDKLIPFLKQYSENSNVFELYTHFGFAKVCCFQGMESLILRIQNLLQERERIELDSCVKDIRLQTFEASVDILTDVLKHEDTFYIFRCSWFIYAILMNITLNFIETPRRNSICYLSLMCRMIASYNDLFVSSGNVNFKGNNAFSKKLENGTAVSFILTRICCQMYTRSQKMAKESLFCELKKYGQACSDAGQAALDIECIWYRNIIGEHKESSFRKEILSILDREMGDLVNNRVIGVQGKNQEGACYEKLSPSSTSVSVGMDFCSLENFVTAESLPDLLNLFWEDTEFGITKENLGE
Method in brief: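 GST-tagged yeast TFs (full-length or DNA-binding domain) were made by PURExpress in vitro transcription/translation and applied at about 100-200 nM to universal all-10-mer Agilent arrays. The arrays were made double-stranded by primer extension, on fresh or once-stripped slides. Bound protein was detected with fluorescent anti-GST, and scans were normalised with masliner. Each ungapped eight-base word, pooled with its reverse complement, received an E-score (modified Wilcoxon-Mann-Whitney statistic) from the Universal PBM Analysis Suite.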

Sequence	PBM E-score
CACCTCAC	-0.0148
CTTGTATC	0.0882
GCCGGACC	0.214
GATGTCCA	0.117
TGAGTGAA	-0.205
ATCCCTTG	-0.223
GTAGGGCA	-0.106
CAAGGAAG	0.085
GAGATACC	0.0999
AAATCGTG	0.249
GTGAAAGA	0.15
TACCGCGA	0.172
CTGACCTC	-0.177
AGTAGTTG	0.00555
CTAACTTA	0.129
GCACCTGC	-0.0805
GAACCAGC	0.0888
ATAGTGTG	0.0766
CACGGATC	0.256
ACCTAAAT	0.0509
GGGTCTAC	-0.06
GGTCAGGA	-0.00348
CTTCCTAC	-0.341
GGATAGCA	0.152
CTGTTAGA	-0.0394

An excerpt of these results, with each value named:
TGAGTGAA
  PBM E-score = -0.205
GGTCAGGA
  PBM E-score = -0.00348
CTGTTAGA
  PBM E-score = -0.0394

Next results follow.

Sequence	PBM E-score
AAATGGTC	0.0546
TACCGACA	0.179
ATCTCAGC	0.0216
AAAGCCAT	0.105
CGCATTCC	-0.319
CACGGCAA	0.199
CACAGGGC	-0.271
AACATCAG	0.119
TACGGAAA	0.362
CGTGCCCA	-0.0799
ATCGCAGA	-0.132
ACTAAGCG	-0.0208
GTGAGTGA	-0.0825
ACCCTAAC	-0.0425
AATGATAG	0.142
ATCGTTTG	0.28
GCCAAAGC	-0.136
GACTACAC	-0.0534
GCAAGACA	-0.0345
GTTAATAA	0.262
CTGTCGAC	-0.154
CCACGGCG	0.0177
TGGCCCAA	-0.17
AGTGATTG	-0.003
ACGAGTGG	-0.16

Sequence	PBM E-score
CCGGTGGA	0.107
ATTCTAGA	0.057
ACGTCGTA	-0.273
AGCCCATC	-0.215
ACGACACT	-0.148
ACAGTCGC	-0.155
CCACTCTC	-0.131
GGGCAGCA	-0.211
CCGACCAA	0.167
AGGCTCGA	-0.162
TAAAACCA	-0.0862
ACGCGCTA	0.0714
ATCTGCGC	-0.0258
GCATGCAA	0.0435
CAGGCAAG	-0.223
CTGCAGCA	-0.139
CGCCGCCC	-0.0549
CTTCAGTA	0.0326
AAGGTAGG	-0.0438
CGATCATA	0.086
GAGGAAAA	0.148
AACGGTCT	-0.0342
AAACACTG	0.0473
TGGTGAAA	-0.0226
CAGGTCAA	-0.127

Sequence	PBM E-score
GGACGCCC	-0.106
CCAGGTCG	-0.276
ACGGTTTC	0.0227
GCACATAC	-0.192
ACGTCTCA	-0.138
CACGTGAG	-0.00124
GCCCGATA	-0.00011
CCGCAAAG	0.136
CTAGCTCA	-0.178
CATGGATC	-0.19
AGTATGCC	-0.0488
AGGAGCAA	-0.191
CTGGTCGA	-0.155
GATAGTTA	0.0291
AATTCGAA	0.024
ACGTCAGC	-0.113
GCTATGAC	-0.0297
AGCCAATC	-0.0865
CCGTCACG	0.00271
GAGTGGAA	-0.0522
AGGGCCAA	-0.306
CGTAGTAA	0.0272
AATCCAGG	-0.0734
ACAGACGA	0.0404
AATGCGAT	-0.14

Sequence	PBM E-score
TCCGAGCA	0.329
ACCTAGCA	-0.108
CCAAAGGC	-0.141
GAAGGCAA	-0.0516
AAGATATG	0.196
CCCGCCTA	-0.029
GGATTAAC	-0.0895
CGTCTAGC	-0.0336
AATAAGAC	-0.11
AAGCCCGA	0.0527
CGAGAATC	0.156
ATCGACCA	-0.178
ACACAATC	0.07
CAGGGATC	-0.129
AGGACTCG	-0.182
GACAAATA	0.0779
TGATTGCA	-0.101
ACCCGCAC	-0.146
CAGACGGG	-0.207
AAATCCCG	0.153
AGGATTGC	-0.076
CGCCGCTC	0.144
ATGATATC	-0.0352
ATGAGCCA	-0.114
CCCCACGC	-0.299

Sequence	PBM E-score
ACACTTGG	-0.094
GGTGCCAA	-0.106
ACTTCGAG	0.0369
ATCGGCTC	0.165
AGACGTTA	-0.146
GACCTTGA	-0.136
AAACATCA	-0.0701
AGGTAGGG	-0.236
AGAATTCC	0.0683
TGTCAGAA	0.0255
GCTACAAA	0.197
ACGTTGAA	0.0599
ATGCAACC	-0.0353
CACTATTC	0.141
AAGGATGA	-0.214
CATGCACG	-0.177
AAGTTCGG	0.278
AAGAGATG	-0.0581
CTGGACCA	-0.121
CGAGATAG	-0.151
TAATCCGA	0.172
CTTAAAAG	-0.0115
ACAAGGAG	0.0222
ATTCGCAG	0.048
AAGTTAGA	0.0688

Sequence	PBM E-score
ACAAGATG	-0.168
AAATTGGC	-0.144
AACGGCTG	0.0658
CCATACAC	0.0635
AGCGCGAG	-0.0145
AAGCCACG	-0.0993
TCGAAGAA	-0.0488
ACAGAAAT	0.21
ACCTGTAA	-0.103
CCCAGTAA	-0.0821
GCGTTAAC	0.041
CTTTATGC	0.183
TTGTAAAA	0.0967
ACATCGAG	-0.14
CCCTCCAA	-0.193
ACTATCTG	-0.0595
AAGTGCAT	-0.021
AGGCTCAT	-0.102
ACCAGAAA	0.121
AAGCGCCT	-0.14
GAGGGCCC	-0.241
CACTTTGA	-0.151

Single values from the results shown.
PBM E-score, TTGTAAAA reads 0.0967
PBM E-score, GCGTTAAC reads 0.041
PBM E-score, GAGGGCCC reads -0.241
